The target of this assay is Sphingomonas paucimobilis serine palmitoyltransferase, wild type (Sphingomonas paucimobilis) (UniProt Q93UV0). Kind of assay: SEC; size exclusion chromatography of the purified enzymes; data not shown; both purified. Background: SEC sorts molecules by how far they enter the pores of the column.

No constants are given. Whether binding was seen depends on the method and setting. Some entries that bind do so weakly or less than the wild type.

B1: Sphingomonas paucimobilis serine palmitoyltransferase, wild type (enzyme, UniProt Q93UV0 1-420)
chain: MTEAAAQPHALPADAPDIAPERDLLSKFDGLIAERQKLLDSGVTDPFAIVMEQVKSPTEAVIRGKDTILLGTYNYMGMTFDPDVIAAGKEALEKFGSGTNGSRMLNGTFHDHMEVEQALRDFYGTTGAIVFSTGYMANLGIISTLAGKGEYVILDADSHASIYDGCQQGNAEIVRFRHNSVEDLDKRLGRLPKEPAKLVVLEGVYSMLGDIAPLKEMVAVAKKHGAMVLVDEAHSMGFFGPNGRGVYEAQGLEGQIDFVVGTFSKSVGTVGGFVVSNHPKFEAVRLACRPYIFTASLPPSVVATATTSIRKLMTAHEKRERLWSNARALHGGLKAMGFRLGTETCDSAIVAVMLEDQEQAAMMWQALLDGGLYVNMARPPATPAGTFLLRCSICAEHTPAQIQTVLGMFQAAGRAVGVIG
modifications: PLP cofactor covalently bound as an imine (internal aldimine) to Lys265
Regarding B1, the binding result is “binds”.

These data come from PMC3794620, “The Pyridoxal 5′-Phosphate (PLP)-Dependent Enzyme Serine Palmitoyltransferase (SPT): Effects of the Small Subunits and Insights from Bacterial Mimics of Human hLCB2a HSAN1 Mutations” (BioMed Research International, 2013).
